Common to all, as to assay: cleaved PARP positive nuclei fraction relative to DMSO control; melanoma cells; higher = more apoptosis
Holding throughout (details): library dose: low library concentration; 72 h

Assay [1] has as its system WM115.
Assay [2] concerns WM1716.
Assay [3] concerns WM1745.
Assay [4] concerns WM3526.
The subject of assay [5] is WM3619.
For assay [6], the system named is WM451Lu.

Each structure is given as a SMILES string. The list shows a part of the results. Many values rest on one well or one pass, so single values are uncertain.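 Imaging used 1,536-well plates; nuclei positive for cleaved PARP by antibody were divided by total DNA-stained nuclei to yield the apoptosis fraction. Doses for screening kept most cells viable, and cell lines differ markedly in resting and induced cleaved-PARP levels.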

For `Cn1cnc2c(F)c(Nc3ccc(Br)cc3Cl)c(C(=O)NOCCO)cc21` [selumetinib] + OCCn1cc(-c2cnc3nnn(Cc4ccc5ncccc5c4)c3n2)cn1 [PF04217903] (first compound 0.015 µM, partner dose 1 µM), the “cleaved PARP positive nuclei fraction” value is 249% in assay [1]; 94.2% in assay [2]; 85.4% in assay [3]; 205% in assay [4]; 105% in assay [5]; 112% in assay [6].
On to `CC1(C)CCC(c2ccc(Cl)cc2)=C(CN2CCN(c3ccc(C(=O)NS(=O)(=O)c4ccc(N[C@H](CCN5CCOCC5)CSc5ccccc5)c(S(=O)(=O)C(F)(F)F)c4)cc3)CC2)C1` + c1cc(-c2cnn3cc(-c4ccc(OCCN5CCCCC5)cc4)cnc23)ccn1 [Dorsomorphin] (first compound 0.4 µM, partner dose 0.4 µM), for which the “cleaved PARP positive nuclei fraction” value was determined as 194% in assay [1]; 110% in assay [2]; 817% in assay [3]; 87.8% in assay [4]; 105% in assay [5]; 83.8% in assay [6].
As for `CC(=O)O[C@@]12CO[C@@H]1C[C@H](O)[C@@]1(C)C(=O)[C@H](O)C3=C(C)[C@@H](OC(=O)[C@H](O)[C@@H](NC(=O)OC(C)(C)C)c4ccccc4)C[C@@](O)([C@@H](OC(=O)c4ccccc4)[C@H]21)C3(C)C` [Docetaxel] + CN1CCN(c2ccc3nc(-c4c(N)c5c(F)cccc5[nH]c4=O)[nH]c3c2)CC1 [Dovitinib] (first compound 0.0001 µM, partner dose 0.1 µM), the “cleaved PARP positive nuclei fraction” value in assay [1] turned out to be 542%; in assay [2], 1590%; in assay [3] it was 240%; in assay [4], 105%; in assay [5], 160%; in assay [6], 90.4%.
As to `CCN(CC)CCNC(=O)c1c(C)[nH]c(/C=C2\C(=O)Nc3ccc(F)cc32)c1C` [sunitinib] + Cc1cc(Nc2cc(N3CCN(C)CC3)nc(/C=C/c3ccccc3)n2)n[nH]1 [ENMD2076] (first compound 0.4 µM, partner dose 0.04 µM), the “cleaved PARP positive nuclei fraction” value in assay [1] stood at 197%; in assay [2] it was 147%; in assay [3] it was 192%; in assay [4], 32.3%; in assay [5], 77.9%; in assay [6], 245%.
Turning to `NC1(c2ccc(-c3nc4ccn5c(=O)[nH]nc5c4cc3-c3ccccc3)cc2)CCC1` + Oc1cc(-c2nc(-c3ccccc3)[nH]c2-c2ccncc2)ccc1Cl [L779450] (first compound 0.4 µM, partner dose 0.2 µM), the “cleaved PARP positive nuclei fraction” value is 51.1% in assay [1]; 30.8% in assay [2]; 79.6% in assay [3]; 476% in assay [4]; 117% in assay [5]; 136% in assay [6].
Take `Cn1cnc2c(F)c(Nc3ccc(Br)cc3Cl)c(C(=O)NOCCO)cc21` [selumetinib] + O=C(Nc1ccccc1)c1cc([N+](=O)[O-])ccc1Cl [GW9662] (first compound 0.015 µM, partner dose 2 µM): the “cleaved PARP positive nuclei fraction” value turned out to be 44.6% in assay [1]; 31.4% in assay [2]; 97% in assay [3]; 129% in assay [4]; 139% in assay [5]; 34.6% in assay [6].
With `CCN(CC)CCNC(=O)c1c(C)[nH]c(/C=C2\C(=O)Nc3ccc(F)cc32)c1C` [sunitinib] + CO[C@@H]1[C@H](N(C)C(=O)c2ccccc2)C[C@H]2O[C@]1(C)n1c3ccccc3c3c4c(c5c6ccccc6n2c5c31)C(=O)NC4 [Midostaurin] (first compound 0.4 µM, partner dose 0.08 µM), the “cleaved PARP positive nuclei fraction” value in assay [1] was determined as 144%; in assay [2] it was 167%; in assay [3], 205%; in assay [4], 122%; in assay [5], 106%; in assay [6], 72.1%.
In the case of `C[C@]1(O)C[C@@H](c2nc(-c3ccc4ccc(-c5ccccc5)nc4c3)c3c(N)nccn32)C1` + C[C@]1(c2nc3c(C(N)=O)cccc3[nH]2)CCCN1 [Veliparib] (first compound 0.4 µM, partner dose 1.4 µM), the “cleaved PARP positive nuclei fraction” value is 107% in assay [1]; 34.6% in assay [2]; 115% in assay [3]; 41.9% in assay [4]; 109% in assay [5]; 86.1% in assay [6].
Turning to `NC1(c2ccc(-c3nc4ccn5c(=O)[nH]nc5c4cc3-c3ccccc3)cc2)CCC1` + C=CCNC1=C2C[C@@H](C)C[C@H](OC)[C@H](O)[C@@H](C)/C=C(\C)[C@H](OC(N)=O)[C@@H](OC)/C=C\C=C(/C)C(=O)NC(=CC1=O)C2=O [Tanespimycin] (first compound 0.4 µM, partner dose 0.002 µM), the “cleaved PARP positive nuclei fraction” value was 148% in assay [1]; 142% in assay [2]; 101% in assay [3]; 308% in assay [4]; 96.9% in assay [5]; 183% in assay [6].
On to `CC(=O)O[C@@]12CO[C@@H]1C[C@H](O)[C@@]1(C)C(=O)[C@H](O)C3=C(C)[C@@H](OC(=O)[C@H](O)[C@@H](NC(=O)OC(C)(C)C)c4ccccc4)C[C@@](O)([C@@H](OC(=O)c4ccccc4)[C@H]21)C3(C)C` [Docetaxel] + Cn1cncc1[C@@](N)(c1ccc(Cl)cc1)c1ccc2c(c1)c(-c1cccc(Cl)c1)cc(=O)n2C [tipifarnib] (first compound 0.0001 µM, partner dose 0.01 µM), for which the “cleaved PARP positive nuclei fraction” value in assay [1] amounted to 317%; in assay [2] it was 786%; in assay [3], 157%; in assay [4] it was 119%; in assay [5], 150%; in assay [6], 253%.
`CN(c1ncccc1CNc1nc(Nc2ccc3c(c2)CC(=O)N3)ncc1C(F)(F)F)S(C)(=O)=O` + COCC[n+]1c2c(n(Cc3cnccn3)c1C)C(=O)c1ccccc1C2=O [YM155] (first compound 0.08 µM, partner dose 0.0004 µM): the “cleaved PARP positive nuclei fraction” value is 309% in assay [1]; 109% in assay [2]; 115% in assay [3]; 94.3% in assay [4]; 101% in assay [5]; 344% in assay [6].
With `COc1ccc(C2=N[C@@H](c3ccc(Cl)cc3)[C@@H](c3ccc(Cl)cc3)N2C(=O)N2CCNC(=O)C2)c(OC(C)C)c1` [Nutlin-3] + Oc1nc(-c2ccc(C(F)(F)F)cc2)nc2c1CSCC2 [XAV939] (first compound 0.1 µM, partner dose 2 µM), the “cleaved PARP positive nuclei fraction” value in assay [1] is 247%; in assay [2] it was 466%; in assay [3] it was 99.6%; in assay [4] it was 94.5%; in assay [5], 144%; in assay [6], 131%.

For the origin of these results see the supplement of paper PMC4604168 (melanoma cell lines).
